Source: the supplement of paper PMC6411743
± gives the standard deviation of the averaged measurements. Some of the results follow.

Protein sequences, listed by entry. Tags and fused reporters are not part of them. Lines headed by an entry give the natural chain unless they say otherwise; changes in a name come on top.
UniProt O14653: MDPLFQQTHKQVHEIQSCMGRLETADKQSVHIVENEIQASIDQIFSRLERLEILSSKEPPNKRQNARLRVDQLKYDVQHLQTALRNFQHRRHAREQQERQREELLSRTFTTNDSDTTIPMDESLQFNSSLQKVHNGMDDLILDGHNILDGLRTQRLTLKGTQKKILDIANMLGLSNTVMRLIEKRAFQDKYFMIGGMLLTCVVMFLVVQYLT
UniProt Q9NRS6: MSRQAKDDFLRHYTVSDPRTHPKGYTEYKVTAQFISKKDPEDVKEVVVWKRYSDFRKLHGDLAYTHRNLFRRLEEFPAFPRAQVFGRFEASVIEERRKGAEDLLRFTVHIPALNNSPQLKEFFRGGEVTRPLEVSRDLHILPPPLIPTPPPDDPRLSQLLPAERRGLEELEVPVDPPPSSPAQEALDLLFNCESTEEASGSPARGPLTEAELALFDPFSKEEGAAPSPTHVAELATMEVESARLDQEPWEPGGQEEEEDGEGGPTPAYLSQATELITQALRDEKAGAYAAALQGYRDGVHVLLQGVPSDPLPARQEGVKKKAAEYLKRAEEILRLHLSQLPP
UniProt Q9Y2E5: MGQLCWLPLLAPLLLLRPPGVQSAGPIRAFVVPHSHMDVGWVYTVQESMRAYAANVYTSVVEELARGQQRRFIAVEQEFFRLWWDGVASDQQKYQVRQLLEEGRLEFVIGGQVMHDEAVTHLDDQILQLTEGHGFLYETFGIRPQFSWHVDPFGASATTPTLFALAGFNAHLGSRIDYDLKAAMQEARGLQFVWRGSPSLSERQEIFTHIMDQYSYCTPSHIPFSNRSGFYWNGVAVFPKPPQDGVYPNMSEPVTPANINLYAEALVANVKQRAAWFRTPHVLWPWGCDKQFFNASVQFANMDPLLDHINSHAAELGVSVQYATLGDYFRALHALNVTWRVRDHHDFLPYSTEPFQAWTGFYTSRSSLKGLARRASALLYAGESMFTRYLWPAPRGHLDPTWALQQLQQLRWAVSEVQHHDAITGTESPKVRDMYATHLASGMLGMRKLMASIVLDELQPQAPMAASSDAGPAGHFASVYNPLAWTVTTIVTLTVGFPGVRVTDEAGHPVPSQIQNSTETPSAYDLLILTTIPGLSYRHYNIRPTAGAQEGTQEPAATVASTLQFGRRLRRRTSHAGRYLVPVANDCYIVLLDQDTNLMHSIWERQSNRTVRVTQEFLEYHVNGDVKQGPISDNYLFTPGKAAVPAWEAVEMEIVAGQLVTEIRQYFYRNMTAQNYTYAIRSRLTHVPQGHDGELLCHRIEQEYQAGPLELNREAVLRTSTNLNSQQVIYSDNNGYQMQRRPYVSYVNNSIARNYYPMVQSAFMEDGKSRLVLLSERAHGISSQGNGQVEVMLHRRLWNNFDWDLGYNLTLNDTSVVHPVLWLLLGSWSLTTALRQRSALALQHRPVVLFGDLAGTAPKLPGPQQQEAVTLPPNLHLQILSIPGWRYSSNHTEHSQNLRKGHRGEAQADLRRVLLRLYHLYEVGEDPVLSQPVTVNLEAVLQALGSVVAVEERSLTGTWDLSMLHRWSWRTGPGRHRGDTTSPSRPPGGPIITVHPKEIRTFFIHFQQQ
UniProt P23588, whole entry: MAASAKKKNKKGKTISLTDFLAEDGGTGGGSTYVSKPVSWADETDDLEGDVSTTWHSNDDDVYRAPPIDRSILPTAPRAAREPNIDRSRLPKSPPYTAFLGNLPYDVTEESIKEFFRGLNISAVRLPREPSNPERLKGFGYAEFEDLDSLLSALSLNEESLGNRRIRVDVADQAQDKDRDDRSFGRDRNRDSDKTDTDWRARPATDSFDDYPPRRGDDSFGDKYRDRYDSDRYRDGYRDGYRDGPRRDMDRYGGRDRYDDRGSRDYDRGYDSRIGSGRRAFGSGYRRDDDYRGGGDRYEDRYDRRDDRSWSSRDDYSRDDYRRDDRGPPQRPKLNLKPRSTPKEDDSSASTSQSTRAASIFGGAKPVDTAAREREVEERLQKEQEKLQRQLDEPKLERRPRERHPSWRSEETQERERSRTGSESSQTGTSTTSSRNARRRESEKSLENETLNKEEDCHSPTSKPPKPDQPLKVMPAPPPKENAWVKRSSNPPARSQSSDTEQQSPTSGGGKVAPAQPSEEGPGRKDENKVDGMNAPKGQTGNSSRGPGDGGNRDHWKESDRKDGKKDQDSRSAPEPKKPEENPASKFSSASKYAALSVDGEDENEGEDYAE
UniProt Q14203, whole entry: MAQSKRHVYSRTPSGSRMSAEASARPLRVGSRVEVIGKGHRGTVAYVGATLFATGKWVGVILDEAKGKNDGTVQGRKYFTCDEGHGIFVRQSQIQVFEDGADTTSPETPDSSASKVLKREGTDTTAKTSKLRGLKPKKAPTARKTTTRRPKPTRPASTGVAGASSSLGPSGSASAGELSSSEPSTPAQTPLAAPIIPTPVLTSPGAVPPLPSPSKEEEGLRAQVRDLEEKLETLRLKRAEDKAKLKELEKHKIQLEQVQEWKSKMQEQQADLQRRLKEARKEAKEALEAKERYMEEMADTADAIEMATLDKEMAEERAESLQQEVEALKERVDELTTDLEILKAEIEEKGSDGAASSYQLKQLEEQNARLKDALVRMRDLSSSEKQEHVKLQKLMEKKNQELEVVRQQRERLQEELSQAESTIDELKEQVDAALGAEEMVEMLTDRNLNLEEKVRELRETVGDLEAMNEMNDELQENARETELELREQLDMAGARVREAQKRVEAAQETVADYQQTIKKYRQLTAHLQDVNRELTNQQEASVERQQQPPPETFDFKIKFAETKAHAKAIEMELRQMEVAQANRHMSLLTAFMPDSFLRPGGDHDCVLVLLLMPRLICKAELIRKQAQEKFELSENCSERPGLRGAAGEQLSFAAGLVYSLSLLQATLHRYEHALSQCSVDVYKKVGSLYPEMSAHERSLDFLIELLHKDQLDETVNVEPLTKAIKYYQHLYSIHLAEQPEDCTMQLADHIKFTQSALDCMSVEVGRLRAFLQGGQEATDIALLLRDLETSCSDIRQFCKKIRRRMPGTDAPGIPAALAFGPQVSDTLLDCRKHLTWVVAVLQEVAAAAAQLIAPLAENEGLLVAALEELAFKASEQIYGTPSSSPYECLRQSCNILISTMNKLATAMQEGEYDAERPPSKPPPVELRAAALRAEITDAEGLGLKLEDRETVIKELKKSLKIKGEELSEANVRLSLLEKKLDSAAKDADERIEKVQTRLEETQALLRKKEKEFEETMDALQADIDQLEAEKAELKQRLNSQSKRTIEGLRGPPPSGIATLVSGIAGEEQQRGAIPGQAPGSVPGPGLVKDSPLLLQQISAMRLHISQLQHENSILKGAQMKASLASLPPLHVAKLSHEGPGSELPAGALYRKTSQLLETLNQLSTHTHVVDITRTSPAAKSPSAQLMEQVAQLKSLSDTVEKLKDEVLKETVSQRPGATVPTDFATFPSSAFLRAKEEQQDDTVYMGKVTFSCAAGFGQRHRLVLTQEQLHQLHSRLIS
UniProt P19404, whole entry: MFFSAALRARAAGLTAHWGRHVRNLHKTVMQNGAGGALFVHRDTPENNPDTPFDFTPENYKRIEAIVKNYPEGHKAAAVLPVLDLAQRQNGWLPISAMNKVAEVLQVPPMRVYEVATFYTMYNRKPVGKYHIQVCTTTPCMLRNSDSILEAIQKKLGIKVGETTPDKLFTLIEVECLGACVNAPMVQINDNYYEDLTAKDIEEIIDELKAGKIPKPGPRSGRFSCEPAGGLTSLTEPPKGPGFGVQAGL
UniProt Q676U5: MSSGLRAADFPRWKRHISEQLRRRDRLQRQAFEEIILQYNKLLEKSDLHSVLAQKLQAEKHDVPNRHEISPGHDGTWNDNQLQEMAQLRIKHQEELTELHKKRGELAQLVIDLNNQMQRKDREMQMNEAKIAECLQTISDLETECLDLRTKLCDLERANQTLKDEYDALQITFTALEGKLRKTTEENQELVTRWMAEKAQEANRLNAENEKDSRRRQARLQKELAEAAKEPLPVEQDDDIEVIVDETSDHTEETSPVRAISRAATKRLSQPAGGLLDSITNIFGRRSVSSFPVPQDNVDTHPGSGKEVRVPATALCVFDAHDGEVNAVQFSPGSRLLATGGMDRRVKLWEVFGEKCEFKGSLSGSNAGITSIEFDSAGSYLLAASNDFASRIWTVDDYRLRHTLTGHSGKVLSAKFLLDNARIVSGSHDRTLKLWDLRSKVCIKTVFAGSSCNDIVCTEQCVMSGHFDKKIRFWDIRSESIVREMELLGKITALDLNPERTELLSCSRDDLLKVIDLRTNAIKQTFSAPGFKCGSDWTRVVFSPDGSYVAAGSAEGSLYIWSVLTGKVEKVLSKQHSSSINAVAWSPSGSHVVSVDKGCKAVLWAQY
UniProt Q9UBU9: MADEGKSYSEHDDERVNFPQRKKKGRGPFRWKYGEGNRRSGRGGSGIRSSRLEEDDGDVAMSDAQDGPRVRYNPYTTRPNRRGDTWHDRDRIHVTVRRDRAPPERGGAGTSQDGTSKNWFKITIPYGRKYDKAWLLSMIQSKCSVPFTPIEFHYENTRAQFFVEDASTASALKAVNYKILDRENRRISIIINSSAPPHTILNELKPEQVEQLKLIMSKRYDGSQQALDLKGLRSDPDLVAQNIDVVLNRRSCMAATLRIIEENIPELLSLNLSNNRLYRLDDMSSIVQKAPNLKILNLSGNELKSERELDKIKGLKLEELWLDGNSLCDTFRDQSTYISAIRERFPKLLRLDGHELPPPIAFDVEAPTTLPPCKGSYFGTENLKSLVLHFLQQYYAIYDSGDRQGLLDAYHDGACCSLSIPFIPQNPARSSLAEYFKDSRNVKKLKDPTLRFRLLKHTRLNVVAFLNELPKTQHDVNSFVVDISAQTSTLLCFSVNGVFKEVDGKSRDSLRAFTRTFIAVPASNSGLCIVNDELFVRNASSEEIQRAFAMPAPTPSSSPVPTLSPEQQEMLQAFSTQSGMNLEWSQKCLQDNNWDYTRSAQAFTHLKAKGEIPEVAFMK
UniProt Q92844: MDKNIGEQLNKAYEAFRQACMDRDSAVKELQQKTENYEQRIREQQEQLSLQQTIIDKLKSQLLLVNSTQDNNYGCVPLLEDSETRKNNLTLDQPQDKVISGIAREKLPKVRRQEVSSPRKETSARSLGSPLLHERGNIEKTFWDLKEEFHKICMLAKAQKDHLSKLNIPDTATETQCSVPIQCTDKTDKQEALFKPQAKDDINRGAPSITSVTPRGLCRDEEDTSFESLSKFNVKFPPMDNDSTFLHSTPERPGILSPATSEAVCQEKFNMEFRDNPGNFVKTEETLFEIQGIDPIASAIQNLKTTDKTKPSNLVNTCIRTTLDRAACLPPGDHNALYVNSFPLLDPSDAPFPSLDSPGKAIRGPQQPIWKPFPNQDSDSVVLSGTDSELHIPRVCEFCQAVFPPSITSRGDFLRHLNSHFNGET
UniProt Q9GZZ1: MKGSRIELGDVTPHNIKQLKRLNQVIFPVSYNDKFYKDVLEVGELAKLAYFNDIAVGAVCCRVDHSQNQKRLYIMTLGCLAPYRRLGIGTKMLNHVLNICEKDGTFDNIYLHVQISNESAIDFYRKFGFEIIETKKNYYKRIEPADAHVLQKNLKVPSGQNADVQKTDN
UniProt Q9Y5L0: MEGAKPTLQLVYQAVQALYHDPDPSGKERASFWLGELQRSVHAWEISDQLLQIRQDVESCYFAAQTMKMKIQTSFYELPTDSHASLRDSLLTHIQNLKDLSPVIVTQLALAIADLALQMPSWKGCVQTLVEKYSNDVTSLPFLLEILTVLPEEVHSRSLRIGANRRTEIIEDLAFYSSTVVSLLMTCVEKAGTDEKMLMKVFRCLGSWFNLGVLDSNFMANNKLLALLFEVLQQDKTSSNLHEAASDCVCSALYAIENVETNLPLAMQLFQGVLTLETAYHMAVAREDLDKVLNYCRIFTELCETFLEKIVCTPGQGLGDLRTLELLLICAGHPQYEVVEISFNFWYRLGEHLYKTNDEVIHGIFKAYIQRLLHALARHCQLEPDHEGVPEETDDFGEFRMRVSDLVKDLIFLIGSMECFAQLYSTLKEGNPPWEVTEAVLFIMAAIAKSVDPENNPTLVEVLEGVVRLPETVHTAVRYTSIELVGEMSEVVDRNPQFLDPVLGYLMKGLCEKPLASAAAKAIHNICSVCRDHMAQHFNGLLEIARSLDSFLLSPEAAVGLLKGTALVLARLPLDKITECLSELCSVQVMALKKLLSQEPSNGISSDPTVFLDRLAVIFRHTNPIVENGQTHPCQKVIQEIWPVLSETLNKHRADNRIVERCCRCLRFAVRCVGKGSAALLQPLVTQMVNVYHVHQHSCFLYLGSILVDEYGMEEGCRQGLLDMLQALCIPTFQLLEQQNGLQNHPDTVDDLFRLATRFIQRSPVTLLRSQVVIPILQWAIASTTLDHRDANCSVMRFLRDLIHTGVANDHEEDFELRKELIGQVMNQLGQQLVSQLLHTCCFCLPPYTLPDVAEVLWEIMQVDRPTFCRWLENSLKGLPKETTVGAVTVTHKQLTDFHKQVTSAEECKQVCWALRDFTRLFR

Compound: Nc1nc2c(ncn2[C@@H]2O[C@H](COP(=O)(O)OP(=O)(O)OP(=O)(O)O)[C@@H](O)[C@H]2O)c(=O)[nH]1 [guanosine triphosphate]
Assay: NP40-soluble protein abundance relative to vehicle (solubility fold change) (ratio); higher = more soluble protein in presence of GTP
In short: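 Data come from three independent experiments in which Dounce-homogenised Jurkat crude lysate was treated at eight concentrations from 0.1 to 10 mM. Treatment ran 10 min at room temperature and then 3 min at 37 °C, after which 0.8% NP40 and benzonase were added for 60 min at 4 °C before ultracentrifugation. The supernatant underwent TMT labelling and LC-MS/MS, and vsn-normalised intensities were expressed as fold change against the detergent-processed vehicle in each replicate.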

Target	NP40-soluble protein abundance (concentration: 0.1mM)	NP40-soluble protein abundance (concentration: 0.5mM)	NP40-soluble protein abundance (concentration: 1mM)	NP40-soluble protein abundance (concentration: 2mM)	NP40-soluble protein abundance (concentration: 4mM)	NP40-soluble protein abundance (concentration: 6mM)	NP40-soluble protein abundance (concentration: 8mM)	NP40-soluble protein abundance (concentration: 10mM)
E7EQ34 and related entries (UniProt O14653+E7EQ34)	0.99 ± 0.044	1 ± 0.071	1.05 ± 0.082	1.05 ± 0.081	1.01 ± 0.025	1.08 ± 0.082	1.07 ± 0.062	1.16 ± 0.1
E9PFK9 and related entries (UniProt Q9UJ41)	0.984 ± 0.024	0.985 ± 0.042	0.962 ± 0.028	0.961 ± 0.019	0.963 ± 0.03	0.945 ± 0.026	0.938 ± 0.034	0.937 ± 0.038
E9PK26 and related entries (UniProt Q9NRS6)	1.02 ± 0.029	0.923 ± 0.06	0.961 ± 0.063	0.964 ± 0.025	0.997 ± 0.074	0.96 ± 0.097	0.944 ± 0.07	0.954 ± 0.053
F8VU11 and related entries (UniProt Q6NWY9)	0.998 ± 0.25	1.1 ± 0.27	1.03 ± 0.22	1.15 ± 0.35	1.21 ± 0.41	1.24 ± 0.39	1.32 ± 0.52	1.18 ± 0.37
F5GWN5 and related entries (UniProt O00750)	1.1 ± 0.048	1.05 ± 0.033	1.06 ± 0.039	1.06 ± 0.075	1.03 ± 0.066	1.05 ± 0.11	1.05 ± 0.086	0.956 ± 0.071
E9PCD7 and related entries (UniProt Q9Y2E5)	0.9 ± 0.062	0.941 ± 0.02	1.01 ± 0.032	0.952 ± 0.039	0.991 ± 0.061	0.986 ± 0.04	0.984 ± 0.044	1.02 ± 0.074
E9PQR7 and related entries (UniProt Q9UK41)	0.87 ± 0.14	0.859 ± 0.092	1.04 ± 0.12	1.05 ± 0.052	0.992 ± 0.086	1.02 ± 0.073	0.937 ± 0.18	1.07 ± 0.16
E7EX17 and related entries (UniProt P23588)	0.941 ± 0.1	0.941 ± 0.12	0.994 ± 0.11	0.936 ± 0.15	0.958 ± 0.13	1 ± 0.12	1.08 ± 0.092	1.06 ± 0.12
E7EX90 and related entries (UniProt Q14203)	0.997 ± 0.02	1.06 ± 0.033	1.09 ± 0.07	1.11 ± 0.1	1.13 ± 0.12	1.14 ± 0.16	1.15 ± 0.17	1.14 ± 0.19
E7EPT4 and related entries (UniProt P19404)	0.959 ± 0.12	0.932 ± 0.12	1.14 ± 0.18	1.16 ± 0.13	1.2 ± 0.17	1.15 ± 0.17	1.14 ± 0.15	1.24 ± 0.24
F8VUY8 and related entries (UniProt Q96QD8)	0.912 ± 0.12	0.952 ± 0.16	0.895 ± 0.11	0.903 ± 0.23	0.886 ± 0.13	0.856 ± 0.1	0.915 ± 0.065	0.947 ± 0.059
E7ETU7 and related entries (UniProt P09001)	1.09 ± 0.086	1.25 ± 0.31	1.31 ± 0.49	1.39 ± 0.54	1.3 ± 0.44	1.33 ± 0.5	1.33 ± 0.53	1.2 ± 0.59
E7EVC7 and related entries (UniProt Q676U5)	1.05 ± 0.07	1.08 ± 0.087	1.01 ± 0.096	1.03 ± 0.038	1.02 ± 0.049	1.02 ± 0.059	0.99 ± 0.1	1.02 ± 0.081
G3XAN4 and related entries (UniProt Q15629)	0.776 ± 0.028	0.785 ± 0.098	0.911 ± 0.14	0.819 ± 0.16	0.8 ± 0.15	0.783 ± 0.23	0.898 ± 0.19	0.905 ± 0.16
F2Z2W7 and related entries (UniProt Q8IZ69)	1.06 ± 0.016	1.07 ± 0.057	1.03 ± 0.018	1.05 ± 0.023	1.14 ± 0.067	1.13 ± 0.03	1.18 ± 0.018	1.11 ± 0.032
E7EWP0 and related entries (UniProt O43674)	1.01 ± 0.033	1.03 ± 0.071	1.02 ± 0.067	1.04 ± 0.1	1.05 ± 0.048	1.03 ± 0.095	1.04 ± 0.084	1.02 ± 0.06
E7EPN9 and related entries (UniProt Q9Y520)	1.01 ± 0.02	1.01 ± 0.054	1.1 ± 0.063	1.14 ± 0.073	1.24 ± 0.057	1.36 ± 0.075	1.53 ± 0.14	1.7 ± 0.2
E9PE17 and related entries (UniProt Q9Y2R5+I3L0E3+E9PE17)	0.987 ± 0.04	1.06 ± 0.13	1.15 ± 0.21	1.25 ± 0.29	1.28 ± 0.28	1.2 ± 0.26	1.14 ± 0.28	1.13 ± 0.28
F8W0J4 and related entries (UniProt O95619)	0.948 ± 0.051	0.949 ± 0.064	1.01 ± 0.044	1 ± 0.093	1.02 ± 0.13	1.01 ± 0.094	1.07 ± 0.14	1.02 ± 0.14
E9PIN3 and related entries (UniProt Q9UBU9)	1.05 ± 0.045	1.04 ± 0.051	1.03 ± 0.025	1.12 ± 0.064	1.25 ± 0.056	1.37 ± 0.064	1.43 ± 0.093	1.55 ± 0.1
E7EQA9 and related entries (UniProt Q92844)	0.8259 ± 0.0064	0.837 ± 0.011	0.97 ± 0.071	0.92 ± 0.016	0.907 ± 0.041	0.909 ± 0.018	0.9225 ± 0.0083	0.991 ± 0.02
F8WA39 and related entries (UniProt Q13613)	1.02 ± 0.034	1.02 ± 0.063	0.963 ± 0.023	1.01 ± 0.042	1.02 ± 0.064	0.989 ± 0.068	1 ± 0.12	0.986 ± 0.086
E7EQ69 (UniProt Q9GZZ1)	1 ± 0.12	0.984 ± 0.065	0.956 ± 0.028	0.995 ± 0.11	1.01 ± 0.083	0.991 ± 0.045	0.902 ± 0.07	0.94 ± 0.099
G3V3H3 and related entries (UniProt Q07866)	0.949 ± 0.055	0.991 ± 0.068	0.974 ± 0.056	0.932 ± 0.06	0.93 ± 0.047	0.942 ± 0.05	0.971 ± 0.053	0.965 ± 0.069
F6UT28 and related entries (UniProt P62873)	0.927 ± 0.045	0.926 ± 0.059	0.888 ± 0.032	0.849 ± 0.052	0.859 ± 0.028	0.887 ± 0.052	0.878 ± 0.041	0.863 ± 0.046
E9PFH4 and related entries (UniProt Q9Y5L0)	1.02 ± 0.041	1.02 ± 0.051	0.992 ± 0.059	0.983 ± 0.059	0.985 ± 0.054	0.952 ± 0.059	0.922 ± 0.032	0.919 ± 0.081

Single records, as listed above.
F8VU11 and related entries (UniProt Q6NWY9) as listed: NP40-soluble protein abundance (concentration: 0.1mM): 0.998 ± 0.25; NP40-soluble protein abundance (concentration: 0.5mM): 1.1 ± 0.27; NP40-soluble protein abundance (concentration: 1mM): 1.03 ± 0.22; NP40-soluble protein abundance (concentration: 2mM): 1.15 ± 0.35; NP40-soluble protein abundance (concentration: 4mM): 1.21 ± 0.41; NP40-soluble protein abundance (concentration: 6mM): 1.24 ± 0.39; NP40-soluble protein abundance (concentration: 8mM): 1.32 ± 0.52; NP40-soluble protein abundance (concentration: 10mM): 1.18 ± 0.37
E9PIN3 and related entries (UniProt Q9UBU9) as listed: NP40-soluble protein abundance (concentration: 0.1mM): 1.05 ± 0.045; NP40-soluble protein abundance (concentration: 0.5mM): 1.04 ± 0.051; NP40-soluble protein abundance (concentration: 1mM): 1.03 ± 0.025; NP40-soluble protein abundance (concentration: 2mM): 1.12 ± 0.064; NP40-soluble protein abundance (concentration: 4mM): 1.25 ± 0.056; NP40-soluble protein abundance (concentration: 6mM): 1.37 ± 0.064; NP40-soluble protein abundance (concentration: 8mM): 1.43 ± 0.093; NP40-soluble protein abundance (concentration: 10mM): 1.55 ± 0.1
